The conditions of data set [1]: cited from earlier work.
Data set [2] in a line: plasma oxytocin and vasopressin by LC-MS/MS, with or without redox perturbation. Details: species or system human. Conditions: healthy individuals, method of the invention.

Read-outs that look alike come from different tables or passages of the source.

Regarding `CC[C@H](C)[C@@H]1NC(=O)[C@H](Cc2ccc(O)cc2)NC(=O)[C@@H](N)CSSC[C@@H](C(=O)N2CCC[C@H]2C(=O)N[C@@H](CC(C)C)C(=O)NCC(N)=O)NC(=O)[C@H](CC(N)=O)NC(=O)[C@H](CCC(N)=O)NC1=O` [oxytocin], the entries for the “human plasma oxytocin concentration” value in data set [1] (immunoassays on supernatant of acetone precipitation of plasma) and in data set [1] (immunoassays) were 1 to 10 pg/mL and 1 to 500 pg/mL, respectively. The “oxytocin detected in plasma” value in data set [2] was 100-10,000 pg/mL.

The values above are taken from patent publication US20160377635A1, “Measurement of Oxytocin and Vasopressin” (Martin-Protean LLC, priority 2013, published 2016).
